The other results are listed elsewhere or left out. Further columns of the screen follow, without active or inactive calls. Most of these compounds were active or inconclusive in the main read-out, so they are no random draw. Potencies come from curve fits of mixed quality, noted in brackets.
Test: qHTS Assay to Find Inhibitors of Chronic Active B-Cell Receptor Signaling
Details: ABC-DLBCL IkBa-CBG/CBR reporter, luminescence ratio (green luciferase fused to IkBa over red control in TMD8 lymphoma cells), 4 h
Outline: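 TMD8 ABC-DLBCL cells carrying doxycycline-inducible green luciferase fused to IkappaBalpha plus unfused red luciferase were exposed to compounds (up to 46 uM) for 4 hrs at 37C. Activity came from the overlap-corrected green/red luminescence ratio.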

[1] = measured here: CBR red luminescence, cell number
[2] = measured here: IkBa-CBG green luminescence

| SMILES | AC50 [1] | AC50 [2] |
| --- | --- | --- |
| O=C(CCN1CCN(Cc2ccccc2)CC1)NNC(=O)Nc1cccc(C(F)(F)F)c1 | 22.4 µM [falling, single point] |  |
| Cc1cc(C)c(S(C)(=O)=O)c(Oc2cccc(C(F)(F)F)c2)n1 | 11.2 µM [rising, partial curve] |  |
| COc1cccc(NC(=O)CNC(=O)N2CC(=O)Nc3ccccc32)c1 | 10 µM [falling, partial curve, poor fit] |  |
| COc1ccc2c(c1)[C@H]1[C@H](CO2)[C@H](c2ccccc2)[C@]2(C)C(=O)Nc3ccc(C)cc3C(=O)N12 | 5.8 µM [falling, full curve] |  |
| Cc1cc2c(c(=O)n1CCN(C)C)C(c1ccc(Cl)cc1)C(C#N)=C(N)O2 (configuration not stated) | 20.6 µM [falling, single point] |  |
| COc1ccc(OC)c(NS(=O)(=O)c2ccc3c(c2)n(C)c(=O)n3C)c1 | 3.66 µM [rising, full curve, poor fit] |  |
| Cc1csc(NC(=O)COc2ccc3c(C)cc(=O)oc3c2)n1 | 0.326 µM [falling, full curve, poor fit] |  |
| CCOC(=O)C1=C(C)NC(=O)NC1c1cccnc1 (configuration not stated) | 17.8 µM [rising, single point] |  |
| Cc1ccccc1NC(=O)c1sc2nc3c(c(-c4ccco4)c2c1N)CCC3 | 1.41 µM [falling, full curve] |  |
| COc1ccccc1CNC(=O)CSc1n[nH]c(N)n1 | 12.6 µM [rising, single point] |  |
| c1ccc(Nc2nc(N3CCOCC3)nc(N3CCOCC3)n2)cc1 | 4.61 µM [falling, partial curve, poor fit] |  |
| O=C(Nc1ccc(Cl)cc1)c1cc(Br)ccc1OCC(=O)N1CCOCC1 | 2.24 µM [falling, full curve, poor fit] |  |
| Cc1ccccc1-n1c(SCc2csc(Nc3ccccc3)n2)nnc1-c1cccnc1 | 14.6 µM [falling, partial curve] |  |
| O=C(CSc1ncn[nH]1)N1N=C2/C(=C/c3ccccc3)CCCC2C1c1ccccc1 (configuration not stated) | 20.6 µM [falling, single point] |  |
| Cc1cc(=O)oc2cc(OCC(=O)NC3(C#N)CCCCC3)c(Cl)cc12 | 5.17 µM [rising, full curve] |  |
| O=C(N/N=C1\CCSC1)c1cc(Cl)ccc1O | 0.398 µM [falling, full curve, poor fit] |  |
| Cc1nc2sc(C(c3cccc(F)c3)N3CCC(O)CC3)c(O)n2n1 (configuration not stated) | 17.8 µM [rising, partial curve, poor fit] |  |
| CCSc1ccccc1C(=O)N1CCC2(CC1)CC(=O)c1ccccc1O2 | 1.03 µM [falling, partial curve, poor fit] |  |
| COc1ccc(CC(=O)OCC(=O)c2ccc(OC)c(OC)c2)cc1 | 2.59 µM [rising, partial curve] |  |
| O=C(Nc1ccccc1)c1ccn[nH]1 | 0.398 µM [falling, full curve] |  |
| CCOc1ccccc1N(CC(=O)Nc1ccc(OC)cc1)S(=O)(=O)c1ccccc1 | 35.5 µM [falling, single point] |  |
| NNC(=O)CNC(c1ccccc1)c1cc(Br)ccc1NC(=O)c1ccc(Br)cc1 (configuration not stated) | 13 µM [falling, single point] |  |

3 structures from above, arranged by SMILES length, low to high:

| SMILES | AC50 [1] | AC50 [2] |
| --- | --- | --- |
| COc1ccccc1CNC(=O)CSc1n[nH]c(N)n1 | 12.6 µM [rising, single point] |  |
| Cc1cc(C)c(S(C)(=O)=O)c(Oc2cccc(C(F)(F)F)c2)n1 | 11.2 µM [rising, partial curve] |  |
| CCOc1ccccc1N(CC(=O)Nc1ccc(OC)cc1)S(=O)(=O)c1ccccc1 | 35.5 µM [falling, single point] |  |

(further entries)

| SMILES | AC50 [1] | AC50 [2] |
| --- | --- | --- |
| O=C(N/N=C/c1ccc(Br)s1)c1cccnc1 | 15.8 µM [falling, partial curve] | 25.1 µM [falling, single point] |
| Cc1ccc(NC(=O)NC(=O)CSc2nnc(-c3ccc(OC(F)F)cc3)n2N)c(C)c1 | 23.1 µM [rising, single point] |  |
| CC(OC(=O)C1CSC2(c3ccc(F)cc3)CCC(=O)N12)C(=O)NC(N)=O (configuration not stated) | 3.16 µM [falling, partial curve, poor fit] |  |
| COC(=O)C1=C(C)N(Cc2ccccc2)C(=NCC2CC2)N[C@H]1c1ccc(Br)cc1 | 35.5 µM [falling, single point] | 20 µM [rising, single point] |
| Cc1ccccc1-c1noc(-c2cccs2)n1 | 29.1 µM [rising, single point] |  |
| O=C(/C=C/Nc1ccc(F)c(Cl)c1)c1ccco1 | 10.3 µM [falling, partial curve, poor fit] |  |
| CCCCn1c(SCC(=O)NCc2ccco2)nc2cc(S(N)(=O)=O)ccc21 | 16.4 µM [falling, single point] |  |
| O=C(CNC1CCCCC1)NN=C(c1ccccc1)c1ccccc1 | 20 µM [falling, single point] |  |
| CCOC(=O)c1c(CSc2ccc(CC)cc2)oc2ccc(O)c(CN(C)C)c12 | 12.6 µM [falling, single point] |  |
| O=S(=O)(/N=C(/Nc1cccc2ccccc12)c1ccccc1)c1cccs1 | 29.1 µM [falling, single point] |  |
| Cc1cc(C(=O)N/N=C2\CC(=O)c3ccccc32)c(C)n1-c1ccccc1 | 5.62 µM [rising, single point] |  |
| O=C1C(=O)N(CCN2CCOCC2)C(c2ccc(Cl)c(Cl)c2)/C1=C(/O)c1ccc2c(c1)OCO2 (configuration not stated) | 22.4 µM [falling, single point] |  |
| S=C(NC1CCCCCC1)NC1CCCC1 | 14.1 µM [rising, single point] |  |
| NS(=O)(=O)c1ccc(CCNC(=O)c2ccc[nH]c2=S)cc1 | 8.91 µM [rising, partial curve] |  |
| Cc1cccc(C(=O)Nc2nc3ccc(S(C)(=O)=O)cc3s2)c1 | 22.4 µM [falling, single point] |  |
| Cn1c(SCc2cccc(F)c2)nnc1-c1ccncc1 | 0.447 µM [rising, full curve, poor fit] |  |
| O=C(COc1ccccc1)Nc1ccc(OC(F)(F)C(F)F)c(NC(=O)COc2ccccc2)c1 | 14.6 µM [rising, single point] |  |
| Cc1nc2c3cc(F)ccc3n(Cc3ccccc3F)c2s1 | 23.1 µM [rising, single point] |  |
| CCN1C(=NCCc2cccs2)N[C@@H](CCc2ccccc2)[C@H](C(=O)NCCc2cccs2)[C@H]1C | 35.5 µM [falling, single point] |  |
| O=C(COC(=O)c1c(Cl)cccc1Cl)NCc1cccs1 | 2.59 µM [rising, full curve] |  |
| O=C(Nc1cccc2ccccc12)c1ccc(F)cc1 | 10 µM [falling, partial curve, poor fit] |  |
| Cc1ccsc1/C=N/N1CCOCC1 | 31.6 µM [rising, single point] |  |

| SMILES | AC50 [1] | AC50 [2] |
| --- | --- | --- |
| COc1ccc(/C=C2\Sc3ccc(C(=O)N4CCc5ccccc5C4)cc3N(C)C2=O)cc1 | 29.1 µM [rising, single point] |  |
| COc1cccc(C(NC(=O)c2ccccc2F)NC(=O)c2ccccc2F)c1 | 8.91 µM [rising, partial curve] |  |
| CCN(CC)S(=O)(=O)c1ccc(NC(=O)COC(=O)c2ccc(-n3nc(C)cc3C)cc2)cc1 | 4.11 µM [falling, single point] |  |
| CC(C)N(C(=O)c1sc2cc([N+](=O)[O-])ccc2c1Cl)C(C)C | 4.61 µM [falling, single point] |  |
| O=C(O)C1C2C=CC(C2)C1C(=O)Nc1cccc(C(=O)N2CCCCC2)c1 (configuration not stated) | 0.184 µM [falling, full curve, poor fit] |  |
| C/C(=N\Nc1ccc(F)cc1F)c1cccs1 | 15.8 µM [rising, single point] |  |
| Cn1c(=O)c2c(ncn2CCC(=O)N/N=C/c2ccccc2)n(C)c1=O | 35.5 µM [rising, single point] |  |
| O=C(c1ccc(Cl)cc1)C(CN1CCCC1)c1ccccc1 (configuration not stated) | 12.6 µM [falling, partial curve] |  |
| COc1cc(CNCCNC(=O)c2nonc2N)ccc1OCc1ccc(Cl)cc1 | 35.5 µM [falling, single point] |  |
| COc1cc(S(=O)(=O)N2CCN=C2c2ccccc2)ccc1Cl | 35.5 µM [rising, single point] |  |
| O=C(NCc1ccc(Cl)cc1)C1CCN(c2nnc(N3CCCC3=O)s2)CC1 | 35.5 µM [rising, single point] |  |
| CCC(C)NC(=O)CSc1nnc(-c2cc(-c3ccc(C)cc3)nc3ccccc23)n1N (configuration not stated) | 23.1 µM [falling, single point] |  |
| Cc1ccc(C2=NOC(=O)/C2=C\C=C\c2ccccc2)cc1 | 11.2 µM [falling, single point] |  |
| Cc1cccc(NC(=O)COC(=O)[C@@H]2CCCN2C(=O)c2cccs2)c1 | 5.17 µM [rising, full curve, poor fit] |  |
| O=C(O)CSc1nc2ccccc2n1C1CCCCC1 | 35.5 µM [rising, single point] |  |
| CC(C)CCNC(=O)c1cc2c(=O)[nH]c3ccccc3c2s1 | 0.0891 µM [rising, full curve, poor fit] |  |
| Cc1cc2oc(=O)c(CC(=O)NCCCN(C)C)c(C)c2c2occ(C(C)(C)C)c12 | 17.8 µM [falling, partial curve, poor fit] |  |
| CCC(C)c1ccccc1N1CC(C(=O)Nc2ccc(N3CCOCC3)cc2)CC1=O (configuration not stated) | 6.51 µM [rising, single point] |  |
| COC(=O)c1cccc(-n2sc3ccccc3c2=O)c1 | 16.4 µM [falling, partial curve] | 32.6 µM [falling, partial curve, poor fit] |
| COc1ccccc1NC(=O)C(=O)c1cn(CC(=O)N2CCCC2)c2ccccc12 | 0.282 µM [falling, full curve] |  |

Reference: PubChem BioAssay AID493014 (National Center for Advancing Translational Sciences (NCATS), 2011)
